Source: PMC8389850, “The PilB-PilZ-FimX regulatory complex of the Type IV pilus from Xanthomonas citri” (PLoS Pathogens, 2021)
Results are given in words; binding and its absence hold for the method and conditions named.

What was measured:
[1] = target: PilB_(1-190), His tag removed (Xanthomonas citri pv. citri strain 306); assay: SEC-MALS; both purified
[2] = target: PilB_(12-163) (Xanthomonas citri pv. citri strain 306); assay: SEC-MALS; both purified

## PilB_(1-190), His tag removed (from UniProt A0AAI7ZH88 1-190) (domain or fragment)
[1]
  binding: no binding (tested: 3.0 mg/ml to 4.0 mg/ml)

## PilB_(12-163) (from UniProt A0AAI7ZH88 12-163) (domain or fragment)
[2]
  binding: no binding (tested: 3.0 mg/ml to 4.0 mg/ml)
